# Experimental data from the supplement of paper PMC12067093, “Discovery and optimisation of a covalent ligand for TRIM25 and its application to targeted protein ubiquitination” (Chemical Science, 2025).
# The other results are listed elsewhere or left out.
# Compound: CC1Cc2ccccc2N1C(=O)C1CCCN(C1)C(=O)CCl (mixture of isomers) [TRIM25 ligand 11 (diastereomer mixture)]
# Assay: probe-labelled cysteine peptide fold change vs DMSO (competition) (log2 fold change); higher = less target engagement (more negative = stronger competition)
# Conditions: THP-1, incubation time: 4 h
# 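Further: competitive chemoproteomic profiling in live THP-1 cells with an iodoacetamide desthiobiotin (IA-DTB) probe, comparing probe-labelled peptide intensities in compound-treated cells against DMSO-treated controls.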
Target,probe-labelled cysteine peptide fold change (10 µM),probe-labelled cysteine peptide fold change (50 µM)
CPNE3_O75131_15_VALNVSCANLLDK (UniProt O75131),0.0534,0.111
CRELD1_Q96HD1_281_ACLGCMGAGPGR (UniProt Q96HD1),-0.0156,-0.024
CPNE8_Q86YQ8_118_HDFLGQVFCTLGEIVGSQGSR (UniProt Q86YQ8),0.132,0.595
CRELD2_Q6UXH1_120_SEYPDLFEWFCVK (UniProt Q6UXH1),0.193,0.154
CTNNB1_P35222_466_AGDREDITEPAICALR (UniProt P35222),0.0391,0.0697
CRIP1_P50238_52+56_PYCNHPCYAAMFGPK (UniProt P50238),-0.413,-0.42
CPSF3_Q9UKF6_655_TVECEEGSEDDESLREMVELAAQR (UniProt Q9UKF6),-0.0205,0.0979
CS_O75390_101_GFSIPECQK (UniProt O75390),-0.083,-0.11
CRYBG1_Q9Y4K1_581+609_EVQLPTCHSNEPEVVSVASCAPPQEEVLGNEHSHCTAELAAK (UniProt Q9Y4K1),0.00451,-0.813
CSTF1_Q05048_415_CIVHSPTNPGFMTCSDDFR (UniProt Q05048),-0.151,-0.0772
CRYL1_Q9Y2S2_141_QCIVAHPVNPPYYIPLVELVPHPETAPTTVDR (UniProt Q9Y2S2),0.0328,-0.0222
CORO1A_P31146_345_RCEPIAMTVPR (UniProt P31146),-0.109,-0.0695
CORO1C_Q9ULV4_39_VTWDSSFCAVNPR (UniProt Q9ULV4),0.0602,-0.0375
CST3_P01034_123_AFCSFQIYAVPWQGTMTLSK (UniProt P01034),-0.22,-0.252
CSTF2_P33240_62_GYGFCEYQDQETALSAMR (UniProt P33240),-0.512,-0.471
COX19_Q49B96_61_EYLECR (UniProt Q49B96),0.00446,-0.052
CTAGE5_O15320_579_GPGNPLDHQITNERGESSCDR (UniProt Q96PC5+O15320),-0.0295,-0.158
CORO1B_Q9BR76_41_VTWDSTFCAVNPK (UniProt Q9BR76),-0.0723,0.0234
CPNE3_O75131_31_SDPLCVLFLNTSGQQWYEVER (UniProt O75131),0.0773,0.123
CSDE1_O75534_680_ATVECVK (UniProt O75534),0.0785,0.231
CPSF4_O95639_82_KGDQCEFLHEYDMTK (UniProt O95639),0.0614,-0.239

Target,probe-labelled cysteine peptide fold change (10 µM),probe-labelled cysteine peptide fold change (50 µM)
CRYL1_Q9Y2S2_125_VILSSSTSCLMPSK (UniProt Q9Y2S2),-0.101,-0.108
COQ8A_Q8NI60_620_MGGSFLICSK (UniProt Q8NI60),0.135,-0.00226
CRIP1_P50238_56_TLTSGGHAEHEGKPYCNHPCYAAMFGPK (UniProt P50238),-0.889,-1.02
CSTF1_Q05048_178_TLYDHVDEVTCLAFHPTEQILASGSR (UniProt Q05048),0.0512,0.0366
CTNNB1_P35222_520_NLALCPANHAPLR (UniProt P35222),-0.176,0.273
CS_O75390_211_LPCVAAK (UniProt O75390),0.0113,0.0565
CSRP1_P21291_167_GLESTTLADKDGEIYCK (UniProt P21291),-0.27,-0.117
CPNE2_Q96FN4_48_SDPFCVLFTENNGR (UniProt Q96FN4),-0.0238,0.0817
CPSF3_Q9UKF6_655_TVECEEGSEDDESLR (UniProt Q9UKF6),0.139,0.0526
CPNE8_Q86YQ8_196_SNEDGSFTICHK (UniProt Q86YQ8),0.165,0.0412
CRKL_P46109_44_DSSTCPGDYVLSVSENSR (UniProt P46109),0.0198,-0.0389
CRBN_Q96SW2_205_CQIFPSKPVSR (UniProt Q96SW2),0.172,0.295
CREG1_O75629_147_HGFDPQSPLCVHIMLSGTVTK (UniProt O75629),0.0583,0.443
CSDE1_O75534_657_FQLCVLGQNAQTMAYNITPLR (UniProt O75534),0.0603,0.0628
CSDE1_O75534_464_EAEDGIIAYDDCGVK (UniProt O75534),-0.118,-0.12
CRYBG3_Q68DQ2_1502_SSLSDSLVCISEK (UniProt Q68DQ2),0.023,-0.244
CSK_P41240_411_MDAPDGCPPAVYEVMK (UniProt P41240),-0.115,-0.116
CROT_Q9UKG9_166_MLFSTCK (UniProt Q9UKG9),0.00234,0.0419
CRYBG3_Q68DQ2_2762_SLKPIDYVFEEPSISLFALEHCEGR (UniProt Q68DQ2),0.233,-0.0563
CTDP1_Q9Y5B0_700_VLQAQECGHLHVVNPDWLWSCLER (UniProt Q9Y5B0),-0.231,0.0221
CROT_Q9UKG9_210_AFVFDVIHEGCLVTPPELLR (UniProt Q9UKG9),-0.043,0.0924

Target,probe-labelled cysteine peptide fold change (10 µM),probe-labelled cysteine peptide fold change (50 µM)
CPT2_P23786_512_CSEAFVREPSR (UniProt P23786),-0.197,-0.0581
CPOX_P36551_319_WCDDYFFIAHR (UniProt P36551),0.0417,0.0223
CORO7_P57737_389_VSLNPACR (UniProt P57737),0.0924,0.103
CSDE1_O75534_191_CQGVVCAMK (UniProt O75534),0.029,-0.0446
CTDP1_Q9Y5B0_277_ILSRDECIDPFSK (UniProt Q9Y5B0),0.00948,-0.128
CRELD1_Q96HD1_343_QMEGICVK (UniProt Q96HD1),0.0319,0.0193
CRELD2_Q6UXH1_31_KPTPCHR (UniProt Q6UXH1),-0.0101,0.103
CTAGE5_O15320_131_EATEAQSLEATCEK (UniProt Q96PC5+O15320),-0.0982,0.048
CPSF3_Q9UKF6_345_ELFESWCTDK (UniProt Q9UKF6),0.152,0.192
CPSF1_Q10570_149_CAAMLVYGTR (UniProt Q10570),0.00921,-0.00678
CSNK1D_P48730_241_MSTPIEVLCK (UniProt P48730),-0.145,-0.175
CRACR2A_Q9BSW2-2_494_CSEEEEVSDQGVQGQIPEAPPLK (UniProt Q9BSW2),-0.0712,-0.0343
CRYBG1_Q9Y4K1_541_SPEAVGSECPSR (UniProt Q9Y4K1),0.0881,-0.136
CPSF2_Q9P2I0_82_LGLNCAIYATIPVYK (UniProt Q9P2I0),0.0858,0.0113
CORO1A_P31146_345_CEPIAMTVPR (UniProt P31146),-0.0921,-0.179
CSRP1_P21291_34_SCFLCMVCK (UniProt P21291),0.0696,0.11
CREBBP_Q92793_1212_KYEFSPQTLCCYGK (UniProt Q92793),-0.0659,-0.0288
CORO1C_Q9ULV4_190_NGSLICTASK (UniProt Q9ULV4),-0.00932,0.131
CPSF3_Q9UKF6_223_FCNTVHDIVNR (UniProt Q9UKF6),-0.0667,-0.11
CTNNB1_P35222_520_NLALCPANHAPLREQGAIPR (UniProt P35222),-0.269,0.0914
CPT1A_P50416_742_FSCPETDSHR (UniProt P50416),0.0238,-0.0782

Target,probe-labelled cysteine peptide fold change (10 µM),probe-labelled cysteine peptide fold change (50 µM)
CORO1C_Q9ULV4_420_CDLISIPK (UniProt Q9ULV4),-0.212,-0.227
CTNND1_O60716_516_MEIVDHALHALTDEVIIPHSGWEREPNEDCKPR (UniProt O60716),-0.0213,-0.157
CSNK2B_P67870_140_CMDVYTPK (UniProt P67870),-0.081,-0.0226
CPNE2_Q96FN4_388+401_VSHEFAINFNPTNPFCSGVDGIAQAYSACLPHIR (UniProt Q96FN4),0.302,0.0685
CPOX_P36551_281_QWWFGGGCDLTPTYLNQEDAVHFHR (UniProt P36551),0.057,0.0764
CRYZ_Q08257_145_ALIHSACVK (UniProt Q08257),0.0688,0.0591
CORO2A_Q92828_25_ENCYDSVPITR (UniProt Q92828),-0.13,-0.135
CORO2A_Q92828_474_TWLTNGFDVFECPPPK (UniProt Q92828),0.0927,-0.0781
CPSF2_Q9P2I0_20_LTTLSGVQEESALCYLLQVDEFR (UniProt Q9P2I0),-0.0527,-0.0601
COQ8B_Q96D53_508_AHIACR (UniProt Q96D53),-0.0733,0.0572
CTNNA1_P35221_461_MSASQLEALCPQVINAALALAAK (UniProt P35221),0.00601,-0.000209
CSNK1D_P48730_241_KMSTPIEVLCK (UniProt P48730),-0.256,-0.358
CRTAP_O75718_317_NAAPCAVSYLLFDQNDK (UniProt O75718),0.208,0.0626
CRYBB1_P53674_80_RAEFSGECSNLADR (UniProt P53674),-0.0491,-0.0109
CTNNBL1_Q8WYA6_370_VLDHAMIGPEGTDNCHK (UniProt Q8WYA6),-0.0184,-0.103
CSE1L_P55060_842_KICAVGITK (UniProt P55060),-0.19,-0.244
COX17_Q14061_45_GEEHCGHLIEAHK (UniProt Q14061),-0.188,-0.0542
CPSF1_Q10570_532_SIRPQVVTTFELPGCYDMWTVIAPVRK (UniProt Q10570),0.135,-0.0973
CPNE1_Q99829_53_NCSSPEFSK (UniProt Q99829),-0.0922,-0.138
CORO1A_P31146_192+195_DGGLICTSCR (UniProt P31146),-0.041,-0.0766
CTAGE5_O15320_579_GESSCDR (UniProt Q96PC5+O15320),0.042,0.548
